Measurements as given in PMC5908789.
No constants are given. Whether binding was seen depends on the method and setting. In cells and extracts the contact can be indirect. Some results given as binding are weak or reduced against the parent protein; the word gives no strength. For part of these data: Where a sequence is shown, tags or fusion partners need not be part of it.

The chains behind the UniProt entries cited, without tags or fusion partners.
UniProt A2A935: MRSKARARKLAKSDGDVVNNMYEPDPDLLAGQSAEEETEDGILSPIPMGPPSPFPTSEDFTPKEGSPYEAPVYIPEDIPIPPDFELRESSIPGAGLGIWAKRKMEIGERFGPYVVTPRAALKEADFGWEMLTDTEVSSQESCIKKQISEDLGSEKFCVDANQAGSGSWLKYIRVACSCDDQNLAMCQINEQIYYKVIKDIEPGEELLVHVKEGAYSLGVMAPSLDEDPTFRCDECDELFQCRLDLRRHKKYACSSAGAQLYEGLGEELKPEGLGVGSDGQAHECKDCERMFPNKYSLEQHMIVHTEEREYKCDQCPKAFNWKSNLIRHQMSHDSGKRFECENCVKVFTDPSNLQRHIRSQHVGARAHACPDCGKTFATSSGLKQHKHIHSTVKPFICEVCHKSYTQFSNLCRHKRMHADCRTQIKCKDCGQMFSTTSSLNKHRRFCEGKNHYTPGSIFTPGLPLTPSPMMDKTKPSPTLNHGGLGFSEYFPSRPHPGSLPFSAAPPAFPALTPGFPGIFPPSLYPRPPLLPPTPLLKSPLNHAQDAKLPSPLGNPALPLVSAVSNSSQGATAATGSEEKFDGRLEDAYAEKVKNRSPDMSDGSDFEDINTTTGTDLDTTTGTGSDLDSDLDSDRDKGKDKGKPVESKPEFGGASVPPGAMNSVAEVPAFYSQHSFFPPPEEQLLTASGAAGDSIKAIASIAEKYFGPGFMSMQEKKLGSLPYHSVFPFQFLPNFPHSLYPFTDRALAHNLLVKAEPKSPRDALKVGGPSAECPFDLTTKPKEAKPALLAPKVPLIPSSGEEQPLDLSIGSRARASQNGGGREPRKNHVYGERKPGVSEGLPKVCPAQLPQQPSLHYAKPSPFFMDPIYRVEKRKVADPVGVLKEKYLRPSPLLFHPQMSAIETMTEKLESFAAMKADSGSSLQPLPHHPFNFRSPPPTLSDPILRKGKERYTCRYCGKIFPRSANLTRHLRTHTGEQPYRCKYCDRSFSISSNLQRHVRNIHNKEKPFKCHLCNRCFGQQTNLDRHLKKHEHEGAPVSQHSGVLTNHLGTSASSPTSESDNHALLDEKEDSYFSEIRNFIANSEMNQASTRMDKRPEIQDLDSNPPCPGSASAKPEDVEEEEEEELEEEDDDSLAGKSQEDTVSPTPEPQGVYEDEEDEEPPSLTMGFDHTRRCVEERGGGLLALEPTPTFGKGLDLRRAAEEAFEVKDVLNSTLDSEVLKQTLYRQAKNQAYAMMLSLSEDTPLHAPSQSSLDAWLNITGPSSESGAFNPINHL
UniProt P37238: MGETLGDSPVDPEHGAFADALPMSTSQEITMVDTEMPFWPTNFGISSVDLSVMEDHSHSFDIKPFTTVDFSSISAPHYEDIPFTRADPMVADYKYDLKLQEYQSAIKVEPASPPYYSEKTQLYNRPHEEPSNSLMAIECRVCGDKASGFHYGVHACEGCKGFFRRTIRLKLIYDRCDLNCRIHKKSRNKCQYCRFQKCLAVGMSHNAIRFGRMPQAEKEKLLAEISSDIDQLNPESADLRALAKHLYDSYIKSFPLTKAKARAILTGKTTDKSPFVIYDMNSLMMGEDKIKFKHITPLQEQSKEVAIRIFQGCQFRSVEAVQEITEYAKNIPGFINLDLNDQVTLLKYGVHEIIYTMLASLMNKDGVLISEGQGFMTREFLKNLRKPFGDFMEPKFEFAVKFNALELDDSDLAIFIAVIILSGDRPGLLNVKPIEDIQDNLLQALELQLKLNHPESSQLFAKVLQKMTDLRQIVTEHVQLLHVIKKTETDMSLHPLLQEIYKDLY

Tests used:
[1] = biological target: T1, endogenous mouse JMJD1A phosphorylated at S265 (pS265-JMJD1A) in primary adipocytes (mouse (endogenous in primary scWAT adipocytes)) (UniProt Q6PCM1); assay: co-IP; primary adipocytes differentiated from SVF of WT and S265A KI/KI scWATs; the antibody used for IP was not shown (Supplementary Fig. 4e)
T1 sequence (chain, phosphoserine at 265): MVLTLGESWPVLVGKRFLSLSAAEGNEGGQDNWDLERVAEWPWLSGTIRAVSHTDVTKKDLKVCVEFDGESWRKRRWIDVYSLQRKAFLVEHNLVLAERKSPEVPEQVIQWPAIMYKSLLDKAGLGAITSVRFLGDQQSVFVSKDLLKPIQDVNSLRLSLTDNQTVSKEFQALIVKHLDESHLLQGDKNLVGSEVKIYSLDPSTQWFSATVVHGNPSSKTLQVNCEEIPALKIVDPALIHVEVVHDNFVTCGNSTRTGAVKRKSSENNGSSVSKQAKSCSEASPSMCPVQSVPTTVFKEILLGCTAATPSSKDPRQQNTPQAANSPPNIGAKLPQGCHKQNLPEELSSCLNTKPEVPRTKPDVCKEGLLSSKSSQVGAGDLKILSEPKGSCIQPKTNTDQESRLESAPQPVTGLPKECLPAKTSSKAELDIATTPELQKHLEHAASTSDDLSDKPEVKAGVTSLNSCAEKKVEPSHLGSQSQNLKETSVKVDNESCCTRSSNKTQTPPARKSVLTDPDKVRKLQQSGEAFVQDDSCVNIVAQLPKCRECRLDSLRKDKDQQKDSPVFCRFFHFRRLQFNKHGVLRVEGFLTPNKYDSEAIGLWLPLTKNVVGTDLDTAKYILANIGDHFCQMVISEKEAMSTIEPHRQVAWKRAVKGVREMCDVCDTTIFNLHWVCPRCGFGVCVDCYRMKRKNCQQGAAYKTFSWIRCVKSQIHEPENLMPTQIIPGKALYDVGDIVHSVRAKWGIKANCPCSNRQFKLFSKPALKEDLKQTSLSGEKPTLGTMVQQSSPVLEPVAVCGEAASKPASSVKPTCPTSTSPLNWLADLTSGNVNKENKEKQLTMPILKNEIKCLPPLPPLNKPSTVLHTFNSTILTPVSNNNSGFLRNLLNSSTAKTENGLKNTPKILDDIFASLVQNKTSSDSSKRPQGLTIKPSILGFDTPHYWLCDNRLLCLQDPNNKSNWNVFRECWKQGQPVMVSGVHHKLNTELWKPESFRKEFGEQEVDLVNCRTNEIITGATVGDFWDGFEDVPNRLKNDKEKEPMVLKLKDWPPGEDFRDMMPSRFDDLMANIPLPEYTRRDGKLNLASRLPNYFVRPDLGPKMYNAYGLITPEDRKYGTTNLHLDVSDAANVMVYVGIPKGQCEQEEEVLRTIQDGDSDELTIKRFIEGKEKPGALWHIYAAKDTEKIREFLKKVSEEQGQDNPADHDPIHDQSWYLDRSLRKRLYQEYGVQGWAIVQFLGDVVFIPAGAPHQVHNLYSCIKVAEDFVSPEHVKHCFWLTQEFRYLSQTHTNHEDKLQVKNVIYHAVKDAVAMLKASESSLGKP

[2] = biological target: T2, V5-tagged S265D-hJMJD1A (phosphomimetic) (human) (UniProt Q9Y4C1); assay: co-IP; IP of V5-tagged hJMJD1A (anti-V5) from whole-cell lysates of differentiated hJMJD1A-transduced im-scWATs, lysis buffer A (50 mM HEPES-KOH pH 7.9, 150 mM NaCl, 1.5 mM MgCl2, 1% NP-40), 6 h at 4 °C; immunoblots for PRDM16, PPARγ, PGC1α; cells differentiated with or without propranolol (100 nM)
T2 sequence: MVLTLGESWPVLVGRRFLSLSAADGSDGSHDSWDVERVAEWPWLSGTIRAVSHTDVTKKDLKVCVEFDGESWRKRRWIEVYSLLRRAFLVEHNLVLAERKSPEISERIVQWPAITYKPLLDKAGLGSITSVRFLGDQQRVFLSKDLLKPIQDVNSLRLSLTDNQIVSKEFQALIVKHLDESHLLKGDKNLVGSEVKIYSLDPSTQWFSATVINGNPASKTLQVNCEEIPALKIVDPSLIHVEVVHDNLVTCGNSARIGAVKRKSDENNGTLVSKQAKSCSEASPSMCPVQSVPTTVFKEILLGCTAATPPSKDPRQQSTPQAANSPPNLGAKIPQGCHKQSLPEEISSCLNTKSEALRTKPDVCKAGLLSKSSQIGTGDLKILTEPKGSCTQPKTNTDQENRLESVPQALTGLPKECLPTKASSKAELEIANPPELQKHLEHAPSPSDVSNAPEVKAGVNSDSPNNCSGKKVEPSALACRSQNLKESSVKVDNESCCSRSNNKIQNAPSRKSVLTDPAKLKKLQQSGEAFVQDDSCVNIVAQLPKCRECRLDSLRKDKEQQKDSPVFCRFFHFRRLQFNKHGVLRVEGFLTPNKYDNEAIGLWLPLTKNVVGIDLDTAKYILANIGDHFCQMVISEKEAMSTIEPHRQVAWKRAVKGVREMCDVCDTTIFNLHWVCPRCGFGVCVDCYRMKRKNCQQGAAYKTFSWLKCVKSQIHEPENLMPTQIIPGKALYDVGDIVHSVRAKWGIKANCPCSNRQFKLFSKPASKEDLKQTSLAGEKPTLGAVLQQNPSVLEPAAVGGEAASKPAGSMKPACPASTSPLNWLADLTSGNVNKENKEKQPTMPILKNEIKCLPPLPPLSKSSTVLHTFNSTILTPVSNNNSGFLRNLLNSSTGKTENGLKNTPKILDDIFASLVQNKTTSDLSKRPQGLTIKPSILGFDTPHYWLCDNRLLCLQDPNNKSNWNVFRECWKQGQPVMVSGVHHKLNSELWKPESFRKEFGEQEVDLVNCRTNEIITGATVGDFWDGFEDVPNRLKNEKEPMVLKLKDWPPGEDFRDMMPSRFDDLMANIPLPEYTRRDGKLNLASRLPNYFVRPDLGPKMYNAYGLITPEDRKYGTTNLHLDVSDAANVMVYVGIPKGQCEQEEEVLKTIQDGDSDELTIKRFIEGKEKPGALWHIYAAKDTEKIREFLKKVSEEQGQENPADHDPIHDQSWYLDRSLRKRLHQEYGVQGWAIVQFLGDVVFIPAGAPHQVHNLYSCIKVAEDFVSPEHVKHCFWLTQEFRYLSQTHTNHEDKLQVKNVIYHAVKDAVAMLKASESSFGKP

## PRDM16 (native) (from UniProt A2A935 1-1275)
[1]
  binding: binds
[2]
  binding: binds

## peroxisome proliferator-activated receptor-γ (PPARγ) (from UniProt P37238 1-505)
[1]
  binding: binds
[2]
  binding: binds

B1: PGC1α (protein, UniProt O70343 1-797)
chain: MAWDMCSQDSVWSDIECAALVGEDQPLCPDLPELDLSELDVNDLDTDSFLGGLKWCSDQSEIISNQYNNEPANIFEKIDEENEANLLAVLTETLDSLPVDEDGLPSFDALTDGAVTTDNEASPSSMPDGTPPPQEAEEPSLLKKLLLAPANTQLSYNECSGLSTQNHAANHTHRIRTNPAIVKTENSWSNKAKSICQQQKPQRRPCSELLKYLTTNDDPPHTKPTENRNSSRDKCASKKKSHTQPQSQHAQAKPTTLSLPLTPESPNDPKGSPFENKTIERTLSVELSGTAGLTPPTTPPHKANQDNPFKASPKLKPSCKTVVPPPTKRARYSECSGTQGSHSTKKGPEQSELYAQLSKSSGLSRGHEERKTKRPSLRLFGDHDYCQSLNSKTDILINISQELQDSRQLDFKDASCDWQGHICSSTDSGQCYLRETLEASKQVSPCSTRKQLQDQEIRAELNKHFGHPCQAVFDDKSDKTSELRDGDFSNEQFSKLPVFINSGLAMDGLFDDSEDESDKLSYPWDGTQPYSLFDVSPSCSSFNSPCRDSVSPPKSLFSQRPQRMRSRSRSFSRHRSCSRSPYSRSRSRSPGSRSSSRSCYYYESSHYRHRTHRNSPLYVRSRSRSPYSRRPRYDSYEAYEHERLKRDEYRKEHEKRESERAKQRERQKQKAIEERRVIYVGKIRPDTTRTELRDRFEVFGEIEECTVNLRDDGDSYGFITYRYTCDAFAALENGYTLRRSNETDFELYFCGRKQFFKSNYADLDTNSDDFDPASTKSKYDSLDFDSLLKEAQRSLRR
[1]
  binding: binds
[2]
  binding: binds
